Chains of the proteins cited; added tags and fusions are not shown. Residues count along the entry.
UniProt P08603, residues 19-1231: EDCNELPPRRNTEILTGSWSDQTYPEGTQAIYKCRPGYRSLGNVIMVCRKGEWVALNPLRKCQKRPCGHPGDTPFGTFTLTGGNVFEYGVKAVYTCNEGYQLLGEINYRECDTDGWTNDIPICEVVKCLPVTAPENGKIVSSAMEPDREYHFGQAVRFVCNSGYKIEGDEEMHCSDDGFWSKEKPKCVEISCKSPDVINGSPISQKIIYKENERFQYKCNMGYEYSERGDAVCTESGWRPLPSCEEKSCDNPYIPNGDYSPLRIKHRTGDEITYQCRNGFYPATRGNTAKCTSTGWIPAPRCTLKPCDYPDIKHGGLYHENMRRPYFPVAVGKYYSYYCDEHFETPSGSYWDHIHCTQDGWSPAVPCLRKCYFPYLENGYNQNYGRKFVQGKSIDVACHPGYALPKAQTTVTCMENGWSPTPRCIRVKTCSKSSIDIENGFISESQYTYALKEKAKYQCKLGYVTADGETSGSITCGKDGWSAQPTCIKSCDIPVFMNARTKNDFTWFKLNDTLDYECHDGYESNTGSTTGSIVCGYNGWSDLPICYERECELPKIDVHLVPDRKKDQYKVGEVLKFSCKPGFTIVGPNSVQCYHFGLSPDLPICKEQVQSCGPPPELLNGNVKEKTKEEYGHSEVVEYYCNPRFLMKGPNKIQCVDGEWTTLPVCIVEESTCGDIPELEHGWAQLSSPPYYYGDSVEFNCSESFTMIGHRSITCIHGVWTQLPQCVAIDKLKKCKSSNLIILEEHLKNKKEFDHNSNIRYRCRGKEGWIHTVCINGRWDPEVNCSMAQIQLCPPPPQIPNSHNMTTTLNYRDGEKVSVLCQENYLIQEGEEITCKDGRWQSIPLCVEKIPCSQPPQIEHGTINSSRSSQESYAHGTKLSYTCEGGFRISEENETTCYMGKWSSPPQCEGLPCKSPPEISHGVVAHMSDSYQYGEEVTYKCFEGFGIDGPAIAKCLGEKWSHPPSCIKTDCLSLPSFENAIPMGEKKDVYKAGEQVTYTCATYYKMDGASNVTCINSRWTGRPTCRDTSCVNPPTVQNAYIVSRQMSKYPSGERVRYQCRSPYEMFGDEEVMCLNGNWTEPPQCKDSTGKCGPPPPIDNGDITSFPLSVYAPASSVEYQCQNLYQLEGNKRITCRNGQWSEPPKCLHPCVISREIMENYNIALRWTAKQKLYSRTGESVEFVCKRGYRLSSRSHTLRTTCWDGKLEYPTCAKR
UniProt P16220: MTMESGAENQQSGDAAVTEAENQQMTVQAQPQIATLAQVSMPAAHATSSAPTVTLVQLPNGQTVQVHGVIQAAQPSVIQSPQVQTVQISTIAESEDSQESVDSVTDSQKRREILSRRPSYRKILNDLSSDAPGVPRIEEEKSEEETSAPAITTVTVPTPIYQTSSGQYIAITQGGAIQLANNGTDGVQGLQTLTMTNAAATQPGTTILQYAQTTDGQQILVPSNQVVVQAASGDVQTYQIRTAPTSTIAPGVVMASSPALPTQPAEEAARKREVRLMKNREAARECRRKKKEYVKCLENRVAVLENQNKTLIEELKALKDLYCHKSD
UniProt O00716: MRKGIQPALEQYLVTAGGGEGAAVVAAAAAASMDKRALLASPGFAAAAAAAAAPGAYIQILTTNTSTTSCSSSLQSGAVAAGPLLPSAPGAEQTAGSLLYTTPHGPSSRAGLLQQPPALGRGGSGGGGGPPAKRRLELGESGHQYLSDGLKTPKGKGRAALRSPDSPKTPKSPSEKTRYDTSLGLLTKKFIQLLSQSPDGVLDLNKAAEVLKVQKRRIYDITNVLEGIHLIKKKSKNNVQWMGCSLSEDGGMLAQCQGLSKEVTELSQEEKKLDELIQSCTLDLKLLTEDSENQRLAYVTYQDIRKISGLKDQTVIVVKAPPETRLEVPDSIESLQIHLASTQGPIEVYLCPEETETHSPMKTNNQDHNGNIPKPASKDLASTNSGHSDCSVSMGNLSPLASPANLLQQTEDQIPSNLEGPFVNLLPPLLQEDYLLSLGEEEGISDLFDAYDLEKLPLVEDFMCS
UniProt Q14186: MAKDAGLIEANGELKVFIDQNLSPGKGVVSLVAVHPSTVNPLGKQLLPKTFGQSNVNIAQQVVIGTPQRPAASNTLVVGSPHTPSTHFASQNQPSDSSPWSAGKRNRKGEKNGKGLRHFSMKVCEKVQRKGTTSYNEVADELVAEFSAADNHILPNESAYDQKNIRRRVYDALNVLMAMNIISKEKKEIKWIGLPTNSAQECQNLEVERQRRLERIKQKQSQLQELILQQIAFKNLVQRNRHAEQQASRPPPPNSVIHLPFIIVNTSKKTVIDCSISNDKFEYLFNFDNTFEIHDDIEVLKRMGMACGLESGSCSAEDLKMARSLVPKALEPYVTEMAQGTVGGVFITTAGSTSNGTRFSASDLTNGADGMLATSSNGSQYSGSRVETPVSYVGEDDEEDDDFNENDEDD
UniProt Q16254: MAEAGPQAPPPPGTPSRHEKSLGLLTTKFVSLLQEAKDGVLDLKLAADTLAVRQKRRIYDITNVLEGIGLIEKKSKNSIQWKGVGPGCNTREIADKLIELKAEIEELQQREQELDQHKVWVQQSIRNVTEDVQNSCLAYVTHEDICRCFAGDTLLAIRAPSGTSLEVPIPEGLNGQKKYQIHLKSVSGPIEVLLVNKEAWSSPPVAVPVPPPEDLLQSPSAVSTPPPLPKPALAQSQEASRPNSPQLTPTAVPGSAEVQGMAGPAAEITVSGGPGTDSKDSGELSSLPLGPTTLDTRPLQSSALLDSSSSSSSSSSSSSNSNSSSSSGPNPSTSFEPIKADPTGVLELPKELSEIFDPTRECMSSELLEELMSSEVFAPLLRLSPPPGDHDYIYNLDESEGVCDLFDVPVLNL

According to publication PMC8750186:

Biological target: complement factor H (FH) (human (endogenous in hTERT-RPE1)) (UniProt P08603)
Assay: affinity purification with mass spectrometry; hTERT-RPE1 lysates (0.5% NP40, TBS, after 48 h in serum free medium) with anti-FH antibody clone C18/3 or control IgG, 1 h 4 °C, Protein G PLUS-Agarose overnight 4 °C, acidic elution, tryptic digest, LC-MS/MS; enrichment over IgG control, FDR < 0.05

binding, binds:
CREB1 (from UniProt P16220 1-327)
E2F3 (from UniProt O00716 1-465)
TFDP1 (from UniProt Q14186 1-410)
E2F4 (from UniProt Q16254 1-413)

No constants are given. Whether binding was seen depends on the method and setting. Binding seen in cells or lysates may run through a third protein. A yes stands for co-enrichment or nearness to the bait. Other partners may have been found.
